Among the data in PubChem BioAssay AID493014 (National Center for Advancing Translational Sciences (NCATS), 2011) are AC50 values, retold here.

Some of the results follow. Further columns of the screen follow, without active or inactive calls. The list favours compounds with an active or inconclusive main result. The note in brackets gives the kind of curve behind each potency; many fits are weak.

The assay is described as follows: qHTS Assay to Find Inhibitors of Chronic Active B-Cell Receptor Signaling. The settings on record: ABC-DLBCL IkBa-CBG/CBR reporter, luminescence ratio (green luciferase fused to IkBa over red control in TMD8 lymphoma cells), 4 h. In short, it runs like this:
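TMD8 ABC-DLBCL cells carrying doxycycline-inducible green luciferase fused to IkappaBalpha plus unfused red luciferase were exposed to compounds (up to 46 uM) for 4 hrs at 37C. Activity came from the overlap-corrected green/red luminescence ratio.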

Setting [1] is: measured here: CBR red luminescence, cell number.
Setting [2] is: measured here: IkBa-CBG green luminescence.

On to `NC(N)=Nc1nc(-c2ccccc2)c2ccccc2n1`, for which the AC50 under setting [1] was 2.24 µM [falling, partial curve, poor fit].
For the molecule `CCOc1cccc(C(=O)Nc2nccs2)c1`, the AC50 is, setting by setting: under setting [1], 18.4 µM [falling, partial curve, poor fit]; under setting [2], 20.6 µM [rising, partial curve, poor fit].
For the molecule `Cc1cc(=O)oc2cc(NC(=O)c3ccccc3C(=O)O)ccc12`, the AC50 under setting [1] is 14.1 µM [falling, single point].
Same read-out and setting: as for `CC1Oc2ccccc2N(CC(=O)N(Cc2ccccc2)Cc2ccccn2)C1=O` (stereo unspecified), the figure is 0.00461 µM [rising, full curve, poor fit]; as for `O=C(O/N=C/c1cccc([N+](=O)[O-])c1)C1CC1`, 1.3 µM [rising, full curve, poor fit]; as for `Cc1cccc(NS(=O)(=O)c2ccc(C3CCCCC3)cc2)c1`, 25.1 µM [rising, partial curve, poor fit].
The same measure, in the same setting: as for `Cc1ccc(S(=O)(=O)N(CCC(=O)NCc2ccccc2F)c2ccccc2)cc1`, the figure is 8.2 µM [rising, partial curve, poor fit]; as for `C/C(CC(=O)Nc1ccccn1)=N\NC(=O)C(=O)Nc1cccc(Cl)c1C`, 17.8 µM [falling, partial curve, poor fit].
`COCCNC(=S)NN=C1CCC(c2ccccc2)CC1` (stereo unspecified): the concentration at half-maximal activity (AC50) is, setting by setting: under setting [1], 28.2 µM [falling, single point]; under setting [2], 25.1 µM [falling, single point].
For the molecule `COc1ccc(OCC(=O)NNc2c3ccccc3nc3ccccc23)cc1`, the concentration at half-maximal activity (AC50) runs as follows: under setting [1], 16.4 µM [falling, single point]; under setting [2], 25.9 µM [rising, partial curve, poor fit].
Take `Cc1ccc(C(=O)Nc2ccccc2C(=O)N2CCCCCC2)cc1`: the AC50 under setting [1] is 0.631 µM [rising, partial curve, poor fit].
On the same count and under the same terms, the result for `O=C(Nc1ccccc1N1CCOCC1)c1ccc(Cl)c(S(=O)(=O)NCc2ccco2)c1` reads 35.5 µM [falling, single point].
On to `O=C(CC1(O)C(=O)N(C/C=C/c2ccccc2)c2ccccc21)c1ccccn1` (stereo unspecified), for which the AC50 by setting is: under setting [1], 22.4 µM [rising, single point]; under setting [2], 20 µM [falling, single point].
Take `O=C(NC(=O)c1ccccc1)Nc1ccccc1O`: the AC50 under setting [1] was 3.16 µM [falling, full curve].
The same measure, in the same setting: as for `Cc1cccc2c(C(=O)N3CCN(C(=O)c4ccco4)CC3)cc(-c3cccc(Br)c3)nc12`, the figure is 10 µM [falling, partial curve, poor fit].
Still for that read-out and setting: the result for `COc1cc(Br)c(Br)cc1N` reads 0.0891 µM [rising, full curve, poor fit]; that for `COc1ccc(NC(=O)COC(=O)c2cc(=O)c3ccccc3o2)cc1OC`, 14.6 µM [rising, partial curve]; that for `COC(=O)c1ccccc1NC(=O)CCS(=O)(=O)c1ccc(Br)s1`, 6.51 µM [falling, single point].
Still for that read-out and setting: the result for `Cc1cccc(N2CCN(C(=O)CCCOc3ccccc3)CC2)c1C` reads 2.59 µM [rising, partial curve, poor fit].
Take `OC(CNCC(c1ccc(Cl)cc1Cl)c1c[nH]c2ccccc12)c1ccccc1` (stereo unspecified): the AC50 by setting is: under setting [1], 31.6 µM [falling, single point]; under setting [2], 35.5 µM [rising, partial curve, poor fit].
`CCCCCCOC(=O)Sc1nc2ccccc2o1`: under setting [1], the AC50 was 6.51 µM [falling, single point].
As for `OCCC1CN(Cc2ccccc2-c2ccco2)CCN1C1CCCC1` (stereo unspecified), the AC50 under setting [1] was 8.91 µM [falling, partial curve, poor fit].
On the same count and under the same terms, the result for `CCC(C)NCCOCCOc1ccc(Br)cc1` (stereo unspecified) reads 5.01 µM [falling, full curve]; that for `Cc1nc(NC(=O)c2ccccc2)sc1-c1csc(NCc2ccccc2)n1`, 29.1 µM [falling, single point].
Take `CCc1ccc(S(=O)(=O)Nc2cc3c(cc2N2CCCCC2)n(C)c(=O)c(=O)n3C)cc1`: the AC50 under setting [1] was 35.5 µM [falling, single point].
For `CC1CCCCN1c1nnc(N)s1` (stereo unspecified), under setting [1], the AC50 is 2.82 µM [falling, partial curve, poor fit].
Same read-out and setting: the result for `COc1cccc(/C=N/Nc2nc3ccccc3[nH]2)c1OC` reads 2 µM [falling, full curve, poor fit]; that for `Clc1cccc(CSc2ccc(-c3ccco3)nn2)c1`, 6.31 µM [rising, single point].
For the molecule `COc1ccc(NC(=O)c2c(NCc3cccc(OC)c3)sc3c2CCCC3)cc1`, the AC50 under setting [1] was 20 µM [falling, single point].
The same measure, in the same setting: as for `CCOC(=O)c1c(N2C(=O)C3CC(C)=C(C)CC3C2=O)sc(C)c1C` (stereo unspecified), the figure is 25.9 µM [rising, single point].
Consider `Cc1nc(-n2[nH]c3c(c2=O)CCCC3)[nH]c(=O)c1Cc1ccccc1`, for which the AC50 reads like this: under setting [1], 35.5 µM [rising, single point]; under setting [2], 35.5 µM [falling, single point].
For the molecule `CCOC(=O)c1ccc(-n2[nH]c(-c3ccccc3)cc2=O)cc1`, under setting [1], the AC50 was 14.6 µM [falling, partial curve].
Same read-out and setting: as for `CCOC(=O)C(C)c1c(C(=O)c2ccc(C)nc2)c2ccccc2n1C` (stereo unspecified), the figure is 35.5 µM [rising, single point].
On the same count and under the same terms, the result for `O=C(COc1cccnc1[N+](=O)[O-])Nc1ccc2c(c1)OCO2` reads 14.1 µM [falling, single point]; that for `Cc1ccc(C(=O)CCC(=O)NNC(=O)c2ccccc2O)cc1`, 1.16 µM [rising, full curve, poor fit].
`CCN1CCc2nc3sc(C(=O)c4ccc(F)cc4)c(N)c3cc2C1`: the AC50 under setting [1] was 1.41 µM [falling, full curve] and the AC50 under setting [2] was 0.891 µM [rising, full curve, poor fit].
`CC(=O)c1cn(CC(=O)NCc2cccnc2)c2ccccc12`: the AC50 under setting [1] was 2.59 µM [rising, partial curve, poor fit].
Take `COc1ccccc1NC1=NC(c2ccc(Cl)cc2)N=C(N)N1` (stereo unspecified): the AC50 runs as follows: under setting [1], 29.1 µM [rising, single point]; under setting [2], 29.1 µM [falling, single point].
For `O=C(O)c1ccccc1NC(=S)NC(NC(=O)c1ccccc1[N+](=O)[O-])C(Cl)(Cl)Cl` (stereo unspecified), the AC50 under setting [1] was 10 µM [falling, partial curve, poor fit].
For the molecule `Cc1ccc2nc(-c3ccc(SCC(=O)O)nc3)[nH]c2c1`, the concentration at half-maximal activity (AC50) under setting [1] is 11.2 µM [falling, single point].
Same read-out and setting: the result for `COc1ccccc1CN1C[C@@H]2C[C@@H](c3cccc(C)c3)N3CCC[C@@]23C1=O` reads 35.5 µM [falling, single point]; that for `CN(C)CCCOc1ccc(C(C)(C)c2ccccc2)cc1`, 8.2 µM [falling, partial curve].
In the case of `CCc1cc(-c2n[nH]c(=S)n2-c2ccccc2C)cs1`, the AC50 under setting [1] was 13 µM [falling, partial curve].
On to `COC(=O)c1ccc2c(c1)C(C)(C)C(/C=C/c1ccccc1O)=[N+]2C`, for which the AC50 was 35.5 µM [falling, partial curve, poor fit] under setting [1] and 3.16 µM [falling, partial curve, poor fit] under setting [2].
In the case of `CC(C)S(=O)(=O)c1csc(NC(=O)Nc2cc(Cl)ccc2Cl)c1Cl`, under setting [1], the AC50 was 11.2 µM [falling, partial curve].
The same measure, in the same setting: as for `CCCCOC(=O)c1ccc(NC(=O)C(=O)NCCN(C)C)cc1`, the figure is 35.5 µM [rising, single point]; as for `O=C(CN1CCN(S(=O)(=O)c2cc(Cl)ccc2Cl)CC1)c1ccc(O)c(O)c1`, 7.08 µM [rising, full curve]; as for `Cc1nc2cc(NC(=O)c3ccco3)ccc2n1C`, 11.2 µM [falling, partial curve, poor fit].
Same read-out and setting: as for `COc1ccc(CNC(=O)CCc2cc(OC)c(OC)c(OC)c2)cc1`, the figure is 28.2 µM [rising, single point]; as for `Cc1ccc2c(COC(=O)c3cnc(C)cn3)cc(=O)oc2c1`, 6.31 µM [rising, single point]; as for `CSc1ccc(CSCC(=O)N2CCN(S(=O)(=O)c3ccc(C)cc3C)CC2)cc1`, 20.6 µM [falling, single point].
The same measure, in the same setting: as for `O=C(Nc1cccc(Br)c1)c1cc2ccccc2o1`, the figure is 11.2 µM [falling, partial curve]; as for `COc1ccc(CNC(=O)c2ccc(N3CCOCC3)c([N+](=O)[O-])c2)cc1`, 0.251 µM [rising, full curve, poor fit].
Turning to `Clc1cccc(-n2ncc3c(NCCCn4ccnc4)ncnc32)c1`, the AC50 under setting [1] was 11.2 µM [falling, partial curve, poor fit].
Same read-out and setting: the result for `c1ccc(-c2nc3nc4ccccc4nc3n2Cc2ccco2)cc1` reads 8.91 µM [falling, partial curve, poor fit]; that for `COc1ccc(-c2cc(C(=O)N3CCc4ccccc4C3)no2)cc1OC`, 20 µM [falling, single point]; that for `Cc1ccc2cc(C=O)c(Cl)nc2c1`, 35.5 µM [falling, single point].
Still for that read-out and setting: the result for `COc1ccc(-c2csc(-c3ccccc3)n2)c(OC)c1` reads 1.12 µM [rising, partial curve, poor fit]; that for `CCNC(=S)NNC(=O)c1cc(-c2ccc(OCC)cc2)nc2ccccc12`, 7.94 µM [falling, partial curve, poor fit].
Regarding `O=C(Nc1ccc(NC(=O)c2cccs2)cc1Cl)c1ccco1`, the AC50 under setting [1] is 0.1 µM [falling, full curve, poor fit].
Same read-out and setting: the result for `COc1ccccc1NC(=O)CN(c1ccccc1C)S(C)(=O)=O` reads 35.5 µM [falling, single point]; that for `CCc1ccc(NC(=O)CSc2nc3ccccc3nc2N2CCCCC2)cc1`, 11.2 µM [rising, partial curve, poor fit].

A word on the AC50: it is the concentration at which the activity in the assay is half-maximal.
